# Percent effect of library compounds

Data taken from ChEMBL document CHEMBL3988442, “University of Dundee, Small-Polar-MMV Screening Library” (2021).

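Phenotypic screen: M. tuberculosis growth, cholesterol and DPPC medium, 4 days; the read-out is not stated. Tested at 500 µM. The record gives no direction; compounds that gave an IC50 in retests scored well above the rest, so higher reads as more growth inhibition. About 18,000 compounds were tested under these conditions; 5% (about 900) showed 50% or more at least once.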

Each number is a percent effect as filed.
How 0% and 100% were set is not recorded. Most values in the screen are low, and negative values occur.
The compounds are a random part of those screened.

SMILES,Percent Effect
CN1CCN(C(=O)CSc2ncccn2)CC1,11.26%
Cc1ncsc1CCN(C)C(=O)c1cnc(O)cn1,12.49%
NC1CCCN(c2noc(-c3ccccc3)n2)CC1 (stereo not drawn),-61.39%
CN1C(=O)C[C@@H](C(N)=O)[C@@H]1c1ccnn1C,-10.35%
O=C(C1CCCN1Cc1ccccn1)N1CCOCC1 (stereo not drawn),-17.09%
CCC(N)(CC)CNS(=O)(=O)N(C)C1CCCCC1,16.87%
Cn1c(=O)c2c(nc(Cl)n2CCCC#N)n(C)c1=O,61.57%
Cc1cccnc1CCN,9.206%
c1ccc2[nH]c([C@H]3CCCN3)nc2c1,9.638%
CN(C)Cc1ccc(C(=O)N[C@@H]2CCOC[C@H]2O)o1,-5.104%
COCC1(CNC(=O)NCCC2(C)OCCO2)CCC1,-7.926%
CCn1cncc1CN1CCCC(NC(C)=O)C1 (stereo not drawn),6.52%
CCc1ccc(C(=O)NCc2ccc(C(=O)NC)o2)[nH]1,17.09%
Cc1cc(CN(C)c2ncccc2F)no1,11.35%
NC(=O)c1cnc(NC2CCc3ccccc32)c(Cl)c1 (stereo not drawn),83.09%
CNC(=O)CCc1cnn(-c2ccccc2)c1,-4.818%
O=C(Nc1ccncc1)N1CCN(CC2CC2)CC1,6.993%
N[C@H]1C[C@@H](c2ccccc2)C1,21.1%
COCCC(N)c1ccco1 (stereo not drawn),-4.498%
C[C@@H]1CN(CCC(=O)NC2CCCC2)CC[C@]1(C)O,-6.555%
Cn1cc(C(=O)Nc2ccc3[nH]nnc3c2)ccc1=O,7.263%
C=C(C)Cn1nc(C)c(C)c(C#N)c1=O,5.679%
CCc1nc(C)ccc1OCC(=O)N1CCOCC1,-0.1491%
COCCN(CC(=O)NC(N)=O)Cc1ccccc1,-10.03%
N#CC1CCCN(C(=O)CCc2cccc(F)c2)C1 (stereo not drawn),42.93%
CN1N=C(C(=O)NCc2csc(Br)c2)CCC1=O,74.24%
CCC(C)N(CCOC)Cc1cc(=O)n(C)c(=O)n1C (stereo not drawn),-7.68%
NC1CCN(C(=O)c2ccncc2)C1 (stereo not drawn),-25.59%
CCN1CCN(S(=O)(=O)c2c(F)cccc2F)CC1,3.913%
CCOc1ccccc1[C@@H](C)N,14.78%
COc1ccc(C(O)CN)cc1 (stereo not drawn),15.67%
CCN(CC)C(=O)c1ccc(N2CCOCC2)cc1,17.59%
COCC(=O)N1CCCN(CCC(C)SC)CC1 (stereo not drawn),-1.437%
Cn1cc(C(=O)Nc2ccc(F)cc2)ccc1=O,-4.699%
CCC(CNc1ccc2nnnn2n1)N1CCCC1 (stereo not drawn),-22.03%
Cc1ccc(C(=O)N2CCOCC2)cc1-n1cccc1,-7.076%
O=C(CCc1ccsc1)NCCN1CCS(=O)(=O)CC1,-2.859%
O=C1c2ccc(F)cc2C(=O)N1Cc1ccno1,-6.392%
NCCCc1nc(-c2ccccn2)cs1,17.35%
COCCCC1CCCN(C(=O)c2n[nH]c(N)c2Cl)C1 (stereo not drawn),7.696%
COCc1nc2n(n1)CCCC2NC1CCSCC1 (stereo not drawn),27.99%
CC(=O)NCCNC(=O)c1cc(Cl)c(Cl)n1C,-22.05%
CC(C)NC(=O)c1nnn(-c2cccc(Br)c2)c1N,-9.637%
COc1cc(CCN)ccc1F,17.81%
CNC(=O)NC(=O)C(C)Nc1cccc(C)c1 (stereo not drawn),63.43%
OC1(CNC2CC2)CCC1,-1.508%
Cc1c(C#N)nn(-c2cccnc2)c1N,5.568%
CCC(C)Oc1cc(CN)ccn1 (stereo not drawn),-11.63%
Cn1cnnc1SCCNC(=O)Cc1cccnc1,6.57%
NC(=O)C1CCCN(Cc2ccc(F)cc2Cl)C1 (stereo not drawn),0.3474%
COC1CNc2ccccc2C1 (stereo not drawn),3.797%
CCc1nnc(NCCS(=O)(=O)N(C)C)o1,0.404%
CN(C)CCO[C@H]1CCOC[C@H]1NC(=O)c1cn[nH]c1,4.649%
CC(C(=O)N(C)c1ccccc1)N1CCC(O)CC1 (stereo not drawn),-12.71%
CNCC(C)(C)CCO,-21.6%
COCCCNC(=O)C(C)N(C)CC(C)C (stereo not drawn),3.159%
Cc1ccc(F)c(S(=O)(=O)NC[C@@H]2CCNC[C@H]2O)c1,9.583%
CN(CCCOc1ccccc1)CC(=O)NC(N)=O,-8.746%
CCN(CCC(=O)NC)CC(O)c1ccc(C)cc1 (stereo not drawn),-2.679%
CNC(=O)NCc1cccnc1OC1CCCC1,-28.02%
CC1COCCN1C(=O)NCc1nnc2ccccn12 (stereo not drawn),-6.666%
COCCCNc1ccc(Br)cn1,23.52%
N#Cc1ccc(S(=O)(=O)CC(N)=O)c(Cl)c1,-6.83%
N[C@H](c1ccccc1)[C@@H](O)c1ccccc1,12.41%
CC(C)CC(CCO)CNC(=O)N1CCSCC1 (stereo not drawn),22.73%
COc1cccc(NC(=O)CNC(C)(C)C)c1,3.591%
COCCN1CC(NC(=O)c2ccc(N)nc2)CC1=O (stereo not drawn),3.707%
NS(=O)(=O)c1ccc(OCC(F)(F)F)cc1,10.75%
Cc1ccc(NC(=O)Cn2ccnc2)cc1,69.96%
CS(=O)(=O)N1CCCN(Cc2nccn2C2CC2)CC1,-6.462%
COc1ccc2c(c1)CCCN2C(=O)CSC,31.38%
CN1CCC(NC(=O)C2CCCN(S(C)(=O)=O)C2)CC1 (stereo not drawn),5.337%
COC(=O)c1ccoc1COc1ccc(C)cn1,12.02%
CSC1(CNC(=O)NCc2ccco2)CCOCC1,24.13%
NCc1ccc(N2CCC(O)CC2)cc1,9.731%
Cc1noc(C)c1CN1CCCCC1C(N)=O (stereo not drawn),3.473%
CCCNC(=O)Nc1ccc(CN2CCOCC2)cc1,21.83%
O=S(=O)(C1CCOC1)N1CCCCC1 (stereo not drawn),-9.186%
c1cnn(CCN2CCCCC2Cn2cncn2)c1 (stereo not drawn),4.639%
CC1Oc2ccc(NC(=O)c3ccco3)cc2NC1=O (stereo not drawn),28.05%
CCSCC(=O)NCCCc1csc(N)n1,-9.239%
CC(C)CC(C)(N)CO (stereo not drawn),0.02482%
CNS(=O)(=O)c1cc(C(=O)Nc2cc(C)ns2)c(C)o1,24.74%
CCNC(=O)CCC(=O)N(C1CC1)C(C)c1ccco1 (stereo not drawn),-9.593%
OC(C1CCNCC1)C1CCOCC1 (stereo not drawn),-16.86%
CCOc1cccc(CS(=O)(=O)Cc2cc(C)no2)n1,-3.268%
Cc1noc(CN2CCCCC2CCNS(C)(=O)=O)n1 (stereo not drawn),-12.07%
Cc1nn(-c2ccccc2)c(C)c1C(=O)N(C)C,-24.51%
COc1cccc(CN)c1C,-4.847%
Fc1cccnc1NCc1cccc2c1OCCCO2,-3.062%
Cc1noc(C)c1N(C)C(=O)c1ccc(Cl)cn1,-40.61%
CC(=O)c1ccc(S(=O)(=O)NCC(C)(C)N)cc1,-3.539%
CCn1nccc1CN1CC(O)(CC#N)C1,4.766%

Once more, the final 8:

- CCOc1cccc(CS(=O)(=O)Cc2cc(C)no2)n1 | -3.268%
- Cc1noc(CN2CCCCC2CCNS(C)(=O)=O)n1 (stereo not drawn) | -12.07%
- Cc1nn(-c2ccccc2)c(C)c1C(=O)N(C)C | -24.51%
- COc1cccc(CN)c1C | -4.847%
- Fc1cccnc1NCc1cccc2c1OCCCO2 | -3.062%
- Cc1noc(C)c1N(C)C(=O)c1ccc(Cl)cn1 | -40.61%
- CC(=O)c1ccc(S(=O)(=O)NCC(C)(C)N)cc1 | -3.539%
- CCn1nccc1CN1CC(O)(CC#N)C1 | 4.766%